# Test results published in publication PMC10959363.
# Amino acid sequences for entries named in this document (tags omitted).
# UniProt Q9QR71: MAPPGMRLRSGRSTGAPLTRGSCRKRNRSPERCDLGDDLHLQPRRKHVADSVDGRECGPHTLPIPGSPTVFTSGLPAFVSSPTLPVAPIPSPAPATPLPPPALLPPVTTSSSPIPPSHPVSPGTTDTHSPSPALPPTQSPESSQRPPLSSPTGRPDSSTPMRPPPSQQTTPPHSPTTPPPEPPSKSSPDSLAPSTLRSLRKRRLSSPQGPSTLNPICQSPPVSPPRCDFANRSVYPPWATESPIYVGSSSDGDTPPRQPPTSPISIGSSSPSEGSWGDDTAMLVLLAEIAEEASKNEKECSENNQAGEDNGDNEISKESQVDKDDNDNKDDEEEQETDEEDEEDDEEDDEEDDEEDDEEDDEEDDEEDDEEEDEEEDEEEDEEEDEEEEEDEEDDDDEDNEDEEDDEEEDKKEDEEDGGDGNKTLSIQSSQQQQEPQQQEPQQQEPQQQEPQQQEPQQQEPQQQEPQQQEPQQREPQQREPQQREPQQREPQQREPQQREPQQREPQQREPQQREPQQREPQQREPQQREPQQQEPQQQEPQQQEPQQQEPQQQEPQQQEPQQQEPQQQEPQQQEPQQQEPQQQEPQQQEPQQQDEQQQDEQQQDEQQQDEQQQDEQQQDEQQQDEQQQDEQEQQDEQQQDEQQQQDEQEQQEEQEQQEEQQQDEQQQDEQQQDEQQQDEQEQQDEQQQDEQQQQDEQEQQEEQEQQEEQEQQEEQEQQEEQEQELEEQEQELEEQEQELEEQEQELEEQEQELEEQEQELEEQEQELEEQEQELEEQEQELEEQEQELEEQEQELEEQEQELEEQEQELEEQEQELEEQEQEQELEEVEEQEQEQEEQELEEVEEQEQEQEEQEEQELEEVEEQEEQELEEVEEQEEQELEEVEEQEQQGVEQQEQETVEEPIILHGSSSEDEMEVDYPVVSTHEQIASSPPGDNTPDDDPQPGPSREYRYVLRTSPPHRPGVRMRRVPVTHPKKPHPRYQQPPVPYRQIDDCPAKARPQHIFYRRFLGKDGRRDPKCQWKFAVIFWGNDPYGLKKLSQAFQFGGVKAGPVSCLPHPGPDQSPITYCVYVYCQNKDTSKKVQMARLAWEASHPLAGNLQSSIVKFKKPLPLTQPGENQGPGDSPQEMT
# These are yes or no findings as the source states them, for the method shown. Binding seen in cells or lysates may run through a third protein. Where a sequence is shown, tags or fusion partners need not be part of it.
# T1: KSHV viral cyclin, Myc-tagged (vCyclin-Myc) (Kaposi's sarcoma-associated herpesvirus (KSHV)) (UniProt Q77Q36)
# T1 sequence: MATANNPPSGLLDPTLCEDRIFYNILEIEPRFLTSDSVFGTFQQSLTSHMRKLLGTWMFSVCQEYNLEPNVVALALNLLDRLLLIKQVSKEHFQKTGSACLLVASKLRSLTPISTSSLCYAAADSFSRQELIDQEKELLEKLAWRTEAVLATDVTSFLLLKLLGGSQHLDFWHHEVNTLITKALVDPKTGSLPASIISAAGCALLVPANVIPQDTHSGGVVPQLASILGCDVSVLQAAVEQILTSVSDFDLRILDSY
# Assays:
# [1] = target: KSHV latency associated nuclear antigen, Flag-tagged (LANA-Flag) (Kaposi's sarcoma-associated herpesvirus (KSHV)) (UniProt Q9QR71); test: co-IP; KMM cells lentivirally transduced with SERBP1-HA and the tagged partner; lysate immunoprecipitated by the partner's tag (anti-Myc or anti-Flag antibody) on magnetic beads at 4°C overnight, washed with TBST, Western blotting
# [2] = target: T1, KSHV viral cyclin, Myc-tagged (vCyclin-Myc) (Kaposi's sarcoma-associated herpesvirus (KSHV)); test: as above
binder,measurement,setting,value
"SERPINE1 mRNA binding protein 1, HA-tagged (SERBP1-HA) (protein, UniProt Q6AXS5 1-407) MPGHLQEGFGCVVTNRFDQLFDDESDPFEVLKAAENKKKEAGGGGVGGPGAKSAAQAAAQTNSNAAGKQLRKESQKDRKNPLPPSVGVADKKEETQPPVALKKEGIRRVGRRPDQQLQGDGKIIDRRPERRPPRERRFEKPLEEKGEGGEFSVDRPIIERPIRGRGGLGRGRGGRGRGMGRGDGFDSRGKREFDRHSGSDRSSFSHYSGLKHEDKRGGSGSHNWGTVKDELTESPKYIQKQISYNCSDLEQSNVTEETPEGEEHPVADTENKENEVEEVKEEGPKEMTLDEWKAIQNKDRAKVEFNIRKPNEGADGQWKKGFVLHKSKSEEAHAEDSVMDHHFRKPANDITSQLEINFGDLGRPGRGGRGGRGGRGRGGRPNRGSRTDKSSASAPDVDDPEAFPALA",binding,[1],no binding
same,binding,[2],no binding
